# Measured values from publication PMC8009872, “Beam image-shift accelerated data acquisition for near-atomic resolution single-particle cryo-electron tomography” (Nature Communications, 2021).
# No constants are given. Whether binding was seen depends on the method and setting. Some results given as binding are weak or reduced against the parent protein; the word gives no strength.
# B1: protein VC1979 of Vibrio cholerae (dNTPase) (enzyme)
# chain: QVSLNPEWLARNNDEHKIRRNDHRSPFQRDRARILHSAAFRRLQAKTQVHGTSLNDFHRTRLTHSLEAAQIGTGIVAQIKLKQPEFRELLPSDSLIDSLCLAHDIGHPPYGHGGEIALNYMMRDHGGFEGNAQTFRIVTSLEPYTEHHGMNLSRRTLLGLLKYPALLSATRAAIPPPAVAHQRQLKAKDWSPAKGIYDCDLASLDWVLEPLCESDRELLGQMRAEPSSPKEHRKTRFKSLDCSIMELADDIAYGVHDLEDAIVLGMVTRAQWQEAAAAQLAECGDPWFEEHIAELSEMLFSGKHYVRKDAIGGIVNALLTSISVKPVEAPFHNELLAFNAYIEPHMGNALEVLKHFVSQYVIQIPQVQRFEYKGQQLIMDLFEALSADPERLLPQATGEKWRKAQEQDEGMRVICDYIAAMTDAYAQRLHQQLFSAQSHY
# Target: protein VC1979 of Vibrio cholerae (dNTPase) (Vibrio cholerae) (UniProt Q9KQL9)
# Assay: cryo-EM structure; single-particle analysis on images from the same grid as the tomography; about 34k particles from the best 64 micrographs; total dose ~60 e-/Å^2; both purified
binder,measurement,value
B1,binding,binds
